Source: paper PMC8042982
Results are given in words; binding and its absence hold for the method and conditions named. In cells and extracts the contact can be indirect. Some binding calls cover weakened binding; strength is not graded here. Tags and fused reporters may be left off the sequences shown.

Protein sequences, listed by entry. Tags and fused reporters are not part of them.
UniProt Q92993: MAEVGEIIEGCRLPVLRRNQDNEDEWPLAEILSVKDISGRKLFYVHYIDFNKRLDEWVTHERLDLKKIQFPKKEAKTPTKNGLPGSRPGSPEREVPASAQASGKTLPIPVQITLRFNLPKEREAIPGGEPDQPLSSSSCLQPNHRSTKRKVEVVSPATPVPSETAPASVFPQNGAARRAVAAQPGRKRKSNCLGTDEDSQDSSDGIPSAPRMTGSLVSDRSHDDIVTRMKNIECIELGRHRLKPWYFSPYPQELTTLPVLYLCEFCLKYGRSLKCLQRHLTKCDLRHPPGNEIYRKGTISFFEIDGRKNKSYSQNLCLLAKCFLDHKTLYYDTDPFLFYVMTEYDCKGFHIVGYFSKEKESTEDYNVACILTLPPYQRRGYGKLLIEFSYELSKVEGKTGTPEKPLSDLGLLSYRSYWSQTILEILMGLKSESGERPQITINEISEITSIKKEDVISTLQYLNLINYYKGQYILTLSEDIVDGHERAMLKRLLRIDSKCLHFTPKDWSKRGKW

Molecular target: TIP60-HA (UniProt Q92993)
Assay: co-IP; HEK293T cells co-transfected, whole cell extracts 24 h after transfection (50 mM Tris pH 8, 150 mM NaCl, 5 mM EDTA, 0.5% NP40, 1 mM DTT), sonicated; IP with anti-HA tag antibody (µMACS isolation kit for tagged proteins), eluates immunoblotted

B1: FE65-EGFP (protein, UniProt O00213 1-710)
chain: MSVPSSLSQSAINANSHGGPALSLPLPLHAAHNQLLNAKLQATAVGPKDLRSAMGEGGGPEPGPANAKWLKEGQNQLRRAATAHRDQNRNVTLTLAEEASQEPEMAPLGPKGLIHLYSELELSAHNAANRGLRGPGLIISTQEQGPDEGEEKAAGEAEEEEEDDDDEEEEEDLSSPPGLPEPLESVEAPPRPQALTDGPREHSKSASLLFGMRNSAASDEDSSWATLSQGSPSYGSPEDTDSFWNPNAFETDSDLPAGWMRVQDTSGTYYWHIPTGTTQWEPPGRASPSQGSSPQEESQLTWTGFAHGEGFEDGEFWKDEPSDEAPMELGLKEPEEGTLTFPAQSLSPEPLPQEEEKLPPRNTNPGIKCFAVRSLGWVEMTEEELAPGRSSVAVNNCIRQLSYHKNNLHDPMSGGWGEGKDLLLQLEDETLKLVEPQSQALLHAQPIISIRVWGVGRDSGRERDFAYVARDKLTQMLKCHVFRCEAPAKNIATSLHEICSKIMAERRNARCLVNGLSLDHSKLVDVPFQVEFPAPKNELVQKFQVYYLGNVPVAKPVGVDVINGALESVLSSSSREQWTPSHVSVAPATLTILHQQTEAVLGECRVRFLSFLAVGRDVHTFAFIMAAGPASFCCHMFWCEPNAASLSEAVQAACMLRYQKCLDARSQASTSCLPAPPAESVARRVGWTVRRGVQSLWGSLKPKRLGAHTP
In the case of B1, the binding is reported as “binds”.
